From the supplement of paper PMC8104966
± gives the standard deviation of the averaged measurements. Some of the results follow. Single values are uncertain here, since repeats match poorly.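 U2OS cells carrying ACE2 were mixed with U2OS cells carrying full-length spike, and fusion was scored by imaging as the share of nuclei showing both cell types' fluorescent markers. A compound counts as an inhibitory hit when it is non-toxic and its fusion z-score falls below -3, meaning more than three standard deviations below the plate's DMSO wells.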

What follows are compounds tested on U2OS ACE2 x SARS-CoV-2 spike co-culture (assay: cell-cell fusion (fraction fused) z-score vs plate DMSO control; higher = more fusion). Details: 30 µM; 5 h; toxicity class: non-toxic, passed QC.
With COc1cc2c(cc1OC)C(C)NCC2 (stereo unspecified) the “cell-cell fusion (z-score)” value was inactive: 1.64.
CO/N=C(\C(=O)N[C@@H]1C(=O)N2C(C(=O)O)=CCS[C@H]12)c1csc(N)n1 [Ceftizoxime] was tested, and the “cell-cell fusion (z-score)” value was inactive: 2.12.
For CC(C)(C)NCC(O)COc1cccc2c1CCC(=O)N2.Cl (stereo unspecified) [Carteolol hydrochloride], the “cell-cell fusion (z-score)” value was inactive: 1.2.
For CN1C[C@H](C(=O)N[C@]2(C)O[C@@]3(O)[C@@H]4CCCN4C(=O)[C@H](Cc4ccccc4)N3C2=O)C[C@@H]2c3cccc4[nH]cc(c34)C[C@H]21.CS(=O)(=O)O, the “cell-cell fusion (z-score)” value was inactive: -1.95.
In the case of CN1C[C@H](C(=O)N[C@]2(C)O[C@@]3(O)[C@@H]4CCCN4C(=O)[C@H](Cc4ccccc4)N3C2=O)C[C@@H]2c3cccc4[nH]cc(c34)C[C@H]21.CS(=O)(=O)O [Dihydroergotamine methanesulfonate], the “cell-cell fusion (z-score)” value is reported as active: -4.69.
For CNC(=O)Oc1ccc2c(c1)[C@]1(C)CCN(C)[C@@H]1N2C.O=C(O)c1ccccc1O, the “cell-cell fusion (z-score)” value was inactive: -0.907.
With O=C(/C=C/c1ccc(O)cc1)CC(=O)/C=C/c1ccc(O)cc1 [Bisdemethoxycurcumin] the “cell-cell fusion (z-score)” value was inactive: 4.54.
In the case of NCC1OC(O[C@@H]2[C@H](O)C(OC3C(O)C(N)CC(N)C3OC3OC(CO)C(O)C(O)C3N)O[C@@H]2CO)C(N)C(O)C1O.O=S(=O)(O)O (stereo partly specified) [Paromomycin sulfate], the “cell-cell fusion (z-score)” value is reported as inactive: 1.93.
In the case of CC1(C)CCC2=C(O1)C(=O)c1ccccc1C2=O [alpha-LAPACHONE], the “cell-cell fusion (z-score)” value is reported as inactive: 1.1.
For CCCN(CCc1cccs1)[C@H]1CCc2c(O)cccc2C1 [Rotigotine], the “cell-cell fusion (z-score)” value was inactive: 0.131.
With CCN1CCN(Cc2ccc(Nc3ncc(F)c(-c4cc(F)c5nc(C)n(C(C)C)c5c4)n3)nc2)CC1.CS(=O)(=O)O the “cell-cell fusion (z-score)” value was inactive: 0.991.
CO[C@H]1O[C@@H]2O[C@@]3(C)CC[C@H]4[C@H](C)CC[C@@H]([C@H]1C)[C@@]24OO3 [Artemether] was tested, and the “cell-cell fusion (z-score)” value was inactive: 1.29.
For NC[C@H]1O[C@H](O[C@H]2[C@H](O)[C@@H](O[C@H]3O[C@H](CO)[C@@H](O)[C@H](N)[C@H]3O)[C@H](N)C[C@@H]2N)[C@H](N)[C@@H](O)[C@@H]1O.O=S(=O)(O)O, the “cell-cell fusion (z-score)” value was inactive: 1.82.
With CCN(CC)CCNC(=O)c1ccc(NS(C)(=O)=O)cc1.Cl.O [Sematilide monohydrochloride monohydrate] the “cell-cell fusion (z-score)” value was inactive: 3.73.
With c1cncc(C2=NCCC2)c1 the “cell-cell fusion (z-score)” value was inactive: 1.84.
CO/N=C(\C(=O)N[C@@H]1C(=O)N2C(C(=O)[O-])=C(COC(N)=O)CS[C@H]12)c1ccco1.[Na+] [Cefuroxime sodium] was tested, and the “cell-cell fusion (z-score)” value was inactive: 1.29.
For COc1cnc(NS(=O)(=O)c2ccc(N)cc2)nc1, the “cell-cell fusion (z-score)” value was inactive: 1.87.
Cl.Fc1ccc(C(OCCCc2c[nH]cn2)c2ccc(F)cc2)cc1 was tested, and the “cell-cell fusion (z-score)” value was inactive: 2.75.
CCN(CC)CCNC(=O)c1cc(S(C)(=O)=O)ccc1OC.Cl [Tiapride hydrochloride] was tested, and the “cell-cell fusion (z-score)” value was inactive: 2.76.
With Cc1ccc(=O)n(-c2ccccc2)c1 [Pirfenidone] the “cell-cell fusion (z-score)” value was inactive: 2.41.
With c1ccc2c(CCNc3ccc(Nc4ccncc4)cc3)c[nH]c2c1 the “cell-cell fusion (z-score)” value was inactive: -0.461.
For Cc1ccc([C@@H]2O[C@H](CO)[C@@H](O)[C@H](O)[C@H]2O)cc1Cc1ccc(-c2ccc(F)cc2)s1 [Canagliflozin], the “cell-cell fusion (z-score)” value was inactive: 0.908.
For CCCc1nn(C)c2c(=O)[nH]c(-c3cc(S(=O)(=O)N4CCN(C)CC4)ccc3OCC)nc12.O=C(O)CC(O)(CC(=O)O)C(=O)O [Sildenafil citrate], the “cell-cell fusion (z-score)” value was inactive: 1.25.
CC(=O)OCC(=O)[C@@]12O[C@@H]1CC1C3CC=C4C[C@@H](O)CC[C@]4(C)C3CC[C@@]12C (stereo partly specified) was tested, and the “cell-cell fusion (z-score)” value was inactive: 0.0105.
In the case of Cc1cccc(CN2CCN(C(c3ccccc3)c3ccc(Cl)cc3)CC2)c1.Cl.Cl (stereo unspecified), the “cell-cell fusion (z-score)” value is reported as inactive: -0.115.
With CN/C(=N\C#N)NCCSCc1nc[nH]c1C the “cell-cell fusion (z-score)” value was inactive: 1.48.
With C[N+]1(C)C2CCC1CC(OC(=O)c1c[nH]c3ccccc13)C2.[I-] (stereo unspecified) [3-Tropanylindole-3-carboxylate methiodide] the “cell-cell fusion (z-score)” value was active: -3.84.
N#CC(=Cc1ccc(O)c(O)c1)C(N)=S [Tyrphostin 47] was tested, and the “cell-cell fusion (z-score)” value was inactive: 1.16.
With CC(=O)O.CC(=O)O.N=C(NCCCCCCNC(=N)NC(=N)Nc1ccc(Cl)cc1)NC(=N)Nc1ccc(Cl)cc1 [Chlorhexidine Acetate] the “cell-cell fusion (z-score)” value was active: -13.
For COc1ccc(C[C@@H](C)NC[C@H](O)c2ccc(O)c(NC=O)c2)cc1 [Formoterol], the “cell-cell fusion (z-score)” value was inactive: -0.9.
In the case of Cc1c(-c2cnccn2)ssc1=S, the “cell-cell fusion (z-score)” value is reported as inactive: 1.56.
For N.N.O=C1[O][Pt][O]C(=O)C12CCC2, the “cell-cell fusion (z-score)” value was inactive: 1.3.
COc1ccc(-n2nc(CCC(=O)N(C)O)cc2-c2ccc(Cl)cc2)cc1 was tested, and the “cell-cell fusion (z-score)” value was inactive: 1.46.
With C[C@]12CCC(OC(=O)c3ccccc3)CC1CCc1ccccc12 (stereo partly specified) the “cell-cell fusion (z-score)” value was inactive: 0.402.
For CC(=O)c1c(O)cc(O)cc1O, the “cell-cell fusion (z-score)” value was inactive: 0.915.
In the case of O=C1c2ccccc2-c2cccc3cccc1c23, the “cell-cell fusion (z-score)” value is reported as inactive: 1.58.
In the case of C[C@H](N)C(=O)NC(Cc1ccccc1)C(=O)O (mixture of isomers), the “cell-cell fusion (z-score)” value is reported as inactive: 2.22.
In the case of O=C(CCCCCCC(=O)Nc1ccccc1)NO [Vorinostat (SAHA)], the “cell-cell fusion (z-score)” value is reported as inactive: 1.87.
With Cc1cc(C(C)(C)C)cc(C)c1CC1=NCCN1.Cl the “cell-cell fusion (z-score)” value was inactive: 0.695.
In the case of Cc1cc(C(C)(C)C)cc(C)c1CC1=NCCN1.Cl [Xylometazoline hydrochloride], the “cell-cell fusion (z-score)” value is reported as inactive: 1.13.
In the case of NC[C@H]1O[C@H](O[C@H]2[C@H](O)[C@@H](O[C@H]3O[C@H](CO)[C@@H](O)[C@H](N)[C@H]3O)[C@H](N)C[C@@H]2N)[C@H](O)[C@@H](O)[C@@H]1O.O=S(=O)(O)O [Kanamycin sulfate], the “cell-cell fusion (z-score)” value is reported as inactive: 2.15.
For C=CCN1CC[C@]23c4c5ccc(O)c4O[C@H]2C(=O)CC[C@@]3(O)[C@H]1C5.Cl [Naloxone hydrochloride], the “cell-cell fusion (z-score)” value was inactive: 1.04.
With C[N+]1(C)C2CC[C@H]1C[C@@H](OC(=O)C(O)c1ccccc1)C2.[Br-] (stereo partly specified) the “cell-cell fusion (z-score)” value was inactive: 0.175.
With CCOc1cc2ncc(C#N)c(Nc3ccc(F)c(Cl)c3)c2cc1NC(=O)/C=C/CN(C)C [Pelitinib (EKB-569)] the “cell-cell fusion (z-score)” value was -5.52 ± 4.8.
For Cl[C@H]1[C@H](Cl)[C@@H](Cl)[C@@H](Cl)[C@H](Cl)[C@H]1Cl, the “cell-cell fusion (z-score)” value was inactive: 1.62.
In the case of CCOc1ccc(S(=O)(=O)[O-])c2cccnc12.[Na+], the “cell-cell fusion (z-score)” value is reported as inactive: 4.81.
With CC(C)NNC(=O)c1ccncc1.O=P(O)(O)O [Iproniazid phosphate] the “cell-cell fusion (z-score)” value was inactive: 2.76.
In the case of CC(C)NNC(=O)c1ccncc1.O=P(O)(O)O, the “cell-cell fusion (z-score)” value is reported as inactive: 2.29.
In the case of CC(=O)O[C@H]1CCC2(C)C3=C(CCC2C1(C)C)[C@]1(C)CCC(C(C)CCC=C(C)C)[C@@]1(C)CC3 (stereo partly specified), the “cell-cell fusion (z-score)” value is reported as inactive: 3.86.
For CCCCOc1cc(C(=O)NCCN(CC)CC)c2ccccc2n1.Cl [Dibucaine hydrochloride], the “cell-cell fusion (z-score)” value was inactive: -1.56.
In the case of CN[C@@H]1[C@H](OC2[C@H](O[C@H]3[C@H](O)[C@@H](O)[C@H](NC(=N)N)[C@@H](O)[C@@H]3NC(=N)N)O[C@@H](C)[C@]2(O)C=O)O[C@@H](CO)[C@H](O)[C@H]1O.O=S(=O)(O)O (stereo partly specified) [STREPTOMYCIN SULFATE [5mM; 10% aq DMSO + 5mM ethanolamine]], the “cell-cell fusion (z-score)” value is reported as inactive: 2.71.
CN(C)CCCN1c2ccccc2Sc2ccc(C(F)(F)F)cc21.Cl [Triflupromazine hydrochloride] was tested, and the “cell-cell fusion (z-score)” value was inactive: -0.949.
In the case of O=c1c2ccccc2[se]n1-c1ccccc1, the “cell-cell fusion (z-score)” value is reported as inactive: 2.44.
For CCN(CC)CCOc1ccc2c(c1)C(=O)c1cc(OCCN(CC)CC)ccc1-2, the “cell-cell fusion (z-score)” value was inactive: 2.82.
For CN(C)c1ccc(O)c2c1C[C@H]1C[C@H]3[C@H](N(C)C)C(O)=C(C(N)=O)C(=O)[C@@]3(O)C(O)=C1C2=O.Cl, the “cell-cell fusion (z-score)” value was inactive: 1.6.
For CN(C)CC[C@@H](c1ccc(Br)cc1)c1ccccn1.O=C(O)/C=C\C(=O)O [(+)-Brompheniramine maleate], the “cell-cell fusion (z-score)” value was inactive: 2.42.
For CC(=O)N[C@@H](Cc1ccccc1)C(=O)O, the “cell-cell fusion (z-score)” value was inactive: 1.73.
For CCN(CC)CCCC(C)Nc1nc(C)cc(Nc2ccc3nc(C)cc(N)c3c2)n1.Cl.Cl.Cl (stereo unspecified), the “cell-cell fusion (z-score)” value was inactive: 1.75.
In the case of COc1cc(CNC(=O)CCCC/C=C/C(C)C)ccc1O, the “cell-cell fusion (z-score)” value is reported as inactive: 3.35.
In the case of COc1ccc(C(CN(C)C)C2(O)CCCCC2)cc1.Cl (stereo unspecified) [Venlafaxine hydrochloride], the “cell-cell fusion (z-score)” value is reported as inactive: 2.66.
With CC(C)[N+]1(C)C2CC[C@H]1C[C@@H](OC(=O)C(CO)c1ccccc1)C2.[Br-] (stereo partly specified) the “cell-cell fusion (z-score)” value was inactive: 0.318.
In the case of O=c1c2cc(O)c(O)cc2oc2cc(O)c(C3O[C@H](CO)[C@H](O)[C@@H](O)[C@H]3O)c(O)c12 (stereo partly specified), the “cell-cell fusion (z-score)” value is reported as inactive: 3.22.
With CCCCc1ncc(/C=C(\Cc2cccs2)C(=O)O)n1Cc1ccc(C(=O)O)cc1.CS(=O)(=O)O [Eprosartan mesylate] the “cell-cell fusion (z-score)” value was inactive: 2.21.
CCCC(C)(COC(N)=O)COC(=O)NC(C)C (stereo unspecified) was tested, and the “cell-cell fusion (z-score)” value was inactive: 1.73.
In the case of O=C(O)c1ccccc1Nc1ccccc1, the “cell-cell fusion (z-score)” value is reported as inactive: 2.8.
In the case of CC(C)C(=O)OCC(=O)[C@@]12O[C@H](C3CCCCC3)O[C@@H]1C[C@H]1[C@@H]3CCC4=CC(=O)C=C[C@]4(C)[C@H]3[C@@H](O)C[C@@]12C [Ciclesonide], the “cell-cell fusion (z-score)” value is reported as inactive: 1.4.
